Source: patent EP4703386A1 (Shanghai Sinobay Biotechnology Co., Ltd., dated 2026)
No constants are given. Whether binding was seen depends on the method and setting. Some entries that bind do so weakly or less than the wild type.

Chains of the proteins cited; added tags and fusions are not shown. Lines headed by an entry give the natural chain unless they say otherwise; changes in a name come on top. Residues count along the entry.
UniProt Q5ZPR3: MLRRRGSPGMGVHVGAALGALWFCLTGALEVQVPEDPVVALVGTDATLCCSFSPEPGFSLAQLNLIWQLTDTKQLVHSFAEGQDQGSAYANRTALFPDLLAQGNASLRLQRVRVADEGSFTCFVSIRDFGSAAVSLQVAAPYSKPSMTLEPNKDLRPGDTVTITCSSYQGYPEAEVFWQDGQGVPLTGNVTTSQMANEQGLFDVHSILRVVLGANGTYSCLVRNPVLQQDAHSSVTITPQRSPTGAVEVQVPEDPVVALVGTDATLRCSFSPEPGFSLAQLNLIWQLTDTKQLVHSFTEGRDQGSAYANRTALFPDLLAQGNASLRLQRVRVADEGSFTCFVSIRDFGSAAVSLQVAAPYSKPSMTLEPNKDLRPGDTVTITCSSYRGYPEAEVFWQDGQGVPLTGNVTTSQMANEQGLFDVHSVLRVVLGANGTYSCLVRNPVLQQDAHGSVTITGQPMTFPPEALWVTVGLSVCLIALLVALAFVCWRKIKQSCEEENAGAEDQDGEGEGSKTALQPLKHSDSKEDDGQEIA
CD276 protein on tumor target cells (NCI-H292, SK-OV-3): residues 29-534 of Q5ZPR3
human recombinant CD276 protein (Beijing Sino Biological, catalog number 11188-H08H-B): residues 29-461 of Q5ZPR3

B1: Hu012-8 (antibody, IgG1, V domains shown)
VH: QVQLVQSGAEVKKPGASVRVSCKGSGYTFTDHHMYWVRQAPGQGLEWMGRINPNTGVTNYAQKFQGRVSMTRDTSINTVYLELRSLKSDDAAVYYCGRDQVVMVPGVPLDLGMDVWGQGTTVTVSS
VL: NIQMTQSPSSLSASVGDRVTITCRASQTISRYLNWYQQKPGKAPKLLIYAASSLQSGVPSRFSGSGSGADFTLTINTLQPEDFATYYCQQSYRTPQTFGQGTKVEIK
notes: Full-length IgG1; also called candidate antibody Hu012-8
B2: Hu012-13 Fab (clone supernatant) (Fab, V domains shown)
VH: EVQLVQSGAEVKKPGASVKVSCKASGYTFTSYGISWVRQAPGQGLEWMGWISAYNGNTNYAQKLQGRVTMTTDTSTSTAYMELRSLRSDDTAVYYCARAPYYGGYDYWGQGTMVTVSS
VL: ETTLTQSPGTLSLSPGDRATLSCRASQSVRSSYLAWYQQKPGQAPRLVIYGASNRAAGIPDRFSGSGSGTDFTLTISGLEPEDFAVYYCQEYGYSLPNTFGQGTKLEIK
B3: Hu012-14 Fab (clone supernatant) (Fab, V domains shown)
VH: EVQLVETGGGLVQPGGSLRLSCAASGFTFSSYGMTWVRQPPGKGLEWVSHISGSGTNTYYADSVKGRFTISRDNSKNTLYLQMNNLGAEDTAVYYCAKLKWGHSGYGDYWGQGTTVTVSS
VL: EIVLTQSPATLSLSPGERATLSCRASQTISRYLAWYQQKPGQAPRLLIYDASNRATGIPARFSGSGSDTDFTLTISSIEPEDFAVYYCQERSNWPQVTFGPGTKLEIK
B4: Hu012-21 Fab (clone supernatant) (Fab, V domains shown)
VH: EVQLVQSGGGVVQPGRSLRLSCAASGFTFSSYGMHWVRQAPGKGLEWVAVISYDGSNKYYADSVKGRFTISRDNSKDTLYLQMNSLRAEDTAVYYCAKDKLMGWHNYGMDVWGQGTTVTVSS
VL: AIQLTQSPSSLSASVGDRVTITCRASQSINSYLNWYQQKPGKAPKVLIYAASNLQSGVPSRFSGSGSGTDFTLTISSLQPEDFATYYCQQSYSTPPTFGQGTKLEIK
B5: Hu012-24 Fab (clone supernatant) (Fab, V domains shown)
VH: EVQLVQSGGGLVKPGGSLRLSCAASGFTFSRHSMNWVRQAPGKGLEWVSSISSNDEHIIYADSVKGRFTISRDNSKNTLYLEMNSLRAEDTAVYYCARASRYGGSYYGLDYWGQGTLVTVSS
VL: QTVVTQEPSFSVSPGGTVTLTCGLTSGSVSTTYFPSWYQQTPGQPPRRLIYNTNTRSSGVPDRFSGSIVGIKAALTITGAQAEDESDYYCALYLGSGIVEFGGGTKLTVL
B6: Hu012-3 Fab (clone supernatant) (Fab, V domains shown)
VH: QVQLVQSGAEVKKPGESLRISCKGSGYSFTSYWISWVRQMPGKGLEWMGRIDPSDSYTNYSPSFQGHVTISADKSISTAYLQWSSLKASDTAMYYCARHDASGGGPSDYWGQGTLVTVSS
VL: QSVLTQPPSVSAAPGQRVTISCSGSSSNIGDHYVSWYQQLPGTAPKLLIYDNNKRPSGIPDRFSGSKSGTSATLGITGLQTGDEADYYCGTWDSSLSVPNWVFGGGTKVTVL
B7: Hu012-6 Fab (clone supernatant) (Fab, V domains shown)
VH: QMQLVQSGGGLVQPGGSLRLSCAASGFTFSSYWMSWVRQAPGKGLEWVANIKQDGSEKYYVDSVKGRFTISRDNAKNSLYLQMNSLRAEDTAVYYCARSPHYDFWRRDYYYGMDVWGQGTLVTVSS
VL: QSVLTQPPSVSATPGQTVTISCSGSTSNIATNYVSWYQHLPGSAPKLLIYDNNKRPSGIPDRFSGSKSGTSATLDIIGLQTGDEADYYCGVWDPSLTTYVFGTGTQLTAL
B8: Hu012-8 Fab (clone supernatant) (Fab, V domains shown)
VH: B1 VH
VL: B1 VL

Molecular target: CD276 protein on tumor target cells (NCI-H292, SK-OV-3) (human) (UniProt Q5ZPR3)
Assay: flow cytometry on NCI-H292 cell line (Fig. 3)

Q: For B1, which binding is on record?
A: binds

Molecular target: human recombinant CD276 protein (Beijing Sino Biological, catalog number 11188-H08H-B) (human) (UniProt Q5ZPR3)
Assay: ELISA, plate coated with 2 ug/mL CD276, Fab in clone supernatant, HRP goat anti-human Fab

Q: With B2 as the binder, how does the binding read?
A: binds

Q: How did the binding turn out when B3 was run?
A: binds

Q: For B4, which binding is on record?
A: binds

Q: B5 was tested. Which binding did it give?
A: binds

Q: How did the binding turn out when B6 was run?
A: binds

Q: With B7 as the binder, how does the binding read?
A: binds

Q: With B8 as the binder, how does the binding read?
A: binds

Molecular target: CD276 protein on tumor target cells (NCI-H292, SK-OV-3) (human) (UniProt Q5ZPR3)
Assay: flow cytometry on NCI-H292 cells, IgG-Fc-PE second antibody

Q: Which binding does the source give for B1 here?
A: binds

Molecular target: human recombinant CD276 protein (Beijing Sino Biological, catalog number 11188-H08H-B) (human) (UniProt Q5ZPR3)
Assay: ELISA of phage-library clones on CD276 protein

Q: How did the binding turn out when B2 was run?
A: binds

Q: B3 was tested. Which binding did it give?
A: binds

Q: B4 was tested. Which binding did it give?
A: binds

Q: With B5 as the binder, how does the binding read?
A: binds

Q: How did the binding turn out when B6 was run?
A: binds

Q: How did the binding turn out when B7 was run?
A: binds

Q: Which binding does the source give for B8 here?
A: binds

Molecular target: human recombinant CD276 protein (Beijing Sino Biological, catalog number 11188-H08H-B) (human) (UniProt Q5ZPR3)
Assay: ELISA of clone supernatants on antigen CD276 (Fig. 1)

Q: Which binding does the source give for B2 here?
A: binds

Q: B3 was tested. Which binding did it give?
A: binds

Q: B4 was tested. Which binding did it give?
A: binds

Q: How did the binding turn out when B5 was run?
A: binds

Q: For B6, which binding is on record?
A: binds

Q: Which binding does the source give for B7 here?
A: binds

Q: With B8 as the binder, how does the binding read?
A: binds
